No constants are given. Whether binding was seen depends on the method and setting. Binding seen in cells or lysates may run through a third protein. For some assays here: Binding can be weak; no strength is given.

From PMC11322666 come the findings set out here.

The target in one experiment is IRE1α^ΔKR-Flag (human). Description: co-IP; lysates of transfected HEK293T or U2OS cells (24 h) in NETN buffer (20 mM Tris-HCl pH 8.0, 100 mM NaCl, 1 mM EDTA, 0.5% NP-40), IP with anti-Flag (M2) magnetic beads or the indicated antibodies, western blot; Fig. 3G two-way. (In western blotting, separated proteins are transferred to a membrane and probed.)
A further experiment addresses IRE1α^ΔR-Flag (human). The experiment is described as above.

B1: UPF3B, endogenous (protein, UniProt Q9BZI7 1-483)
chain: MKEEKEHRPKEKRVTLLTPAGATGSGGGTSGDSSKGEDKQDRNKEKKEALSKVVIRRLPPTLTKEQLQEHLQPMPEHDYFEFFSNDTSLYPHMYARAYINFKNQEDIILFRDRFDGYVFLDNKGQEYPAIVEFAPFQKAAKKKTKKRDTKVGTIDDDPEYRKFLESYATDNEKMTSTPETLLEEIEAKNRELIAKKTTPLLSFLKNKQRMREEKREERRRREIERKRQREEERRKWKEEEKRKRKDIEKLKKIDRIPERDKLKDEPKIKVHRFLLQAVNQKNLLKKPEKGDEKELDKREKAKKLDKENLSDERASGQSCTLPKRSDSELKDEKPKRPEDESGRDYREREREYERDQERILRERERLKRQEEERRRQKERYEKEKTFKRKEEEMKKEKDTLRDKGKKAESTESIGSSEKTEKKEEVVKRDRIRNKDRPAMQLYQPGARSRNRLCPPDDSTKSGDSAAERKQESGISHRKEGGEE
For B1, the binding result with IRE1α^ΔKR-Flag (human) is “no binding”; with IRE1α^ΔR-Flag (human) it was “binds”.
